The results in this text go back to patent US9126983B2, “Extracts from kibdelos porangium as antibacterial agents” (Merck Sharp & Dohme Corp., priority 2009, dated 2015).

≈ marks a conversion by molar mass, not a printed value.

Assay [1] relates to Staphylococcus aureus (MB2865). The assay is described as follows: Microbroth dilution MIC, Staphylococcus aureus MB2865. Format: cell-based. The settings on record: cation-adjusted Mueller Hinton broth, no visible growth, read-out: MIC-100. From the text: (§1) The Staphylococcus aureus strains used were obtained from the Merck Culture Collection, and are identified as MB2865 and MB5957. […] Selected isolates were subcultured onto either […] Isolates were subcultured twice before assay. […] Plates were read to no growth.
In general terms: Dilution methods test growth across graded concentrations, often in twofold steps.

In assay [2] the test system is Staphylococcus aureus (MB5957). The assay is described as follows: Microbroth dilution MIC, Staphylococcus aureus MB5957. Type of assay: cell-based. The settings on record: cation-adjusted Mueller Hinton broth, no visible growth, read-out: MIC-100.
Text: as §1

Assay [3] relates to Escherichia coli envA1 tolC (MB5746). The assay is described as follows: microbe, parasite or virus in culture. The settings on record: read-out: MIC-100.

Regarding `O=C(O)c1cn(C2CC2)c2cc(N3CCNCC3)c(F)cc2c1=O` [Ciprofloxacin], the MIC in assay [1] is 0.12 µg/mL (≈ 0.362 µM); in assay [2] it was 1 µg/mL (≈ 3.02 µM); in assay [3], under 0.015 µg/mL.
